For 42 sequences, binding signal results are on record in PMC7819943, “Rice protein-binding microarrays: a tool to detect cis-acting elements near promoter regions in rice”.

Chains of the proteins cited; added tags and fusions are not shown.
UniProt Q0JBA9, entry or part of it: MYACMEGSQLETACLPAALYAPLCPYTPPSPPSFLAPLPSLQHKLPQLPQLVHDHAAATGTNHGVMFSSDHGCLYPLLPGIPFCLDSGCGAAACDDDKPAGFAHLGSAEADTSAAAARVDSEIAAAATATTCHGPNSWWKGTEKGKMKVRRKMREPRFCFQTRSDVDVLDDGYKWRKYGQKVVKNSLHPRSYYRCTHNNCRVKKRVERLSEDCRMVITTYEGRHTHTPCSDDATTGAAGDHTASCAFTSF

The other results are listed elsewhere or left out.

The experiment addresses OsWRKY34 (Oryza sativa, UniProt Q0JBA9 1-250). The experiment is described as follows: protein-binding microarray (RPBM); PBS, 2% BSA, 51.3 ng/ul salmon testes DNA, 50 uM zinc acetate, 200 nM TF, 25 C, 1 h; high values mean tight binding. As to conditions: protein: recombinant; tags: N-terminal polyhistidine and DsRed monomer fusion (pET32a); label: CyDye5-dUTP incorporated in the synthesized complementary strand; 3' TTTTT single-stranded linker to array surface; dsDNA, one strand shown. Summed up: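 The binding signal for each feature is its fluorescence intensity in arbitrary units. An Axon 4000B scanner was used to read a custom Agilent array that had been made double-stranded with Cy5-dUTP primer extension, blocked with 2% BSA, incubated at 25 °C for 1 h with 200 nM protein in PBS, 2% BSA, salmon testes DNA and 50 µM zinc acetate, and washed. The protein was an N-terminal polyhistidine–DsRed transcription factor fusion from E. coli BL21-CodonPlus, purified on Ni–NTA.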
In the case of “ACTCCCAATCCGCATCTCCCTCCGCTGCGCCGGCGCCGCCCGGAGTCACCTAGTGCAG”, the binding signal was 8850 fluorescence intensity (a.u.).
The figure for “AACCGTTTCATGAAATTTGGCATATGTTGTCTAGGATTCTCGGAGTCACCTAGTGCAG” is 8430 fluorescence intensity (a.u.).
The figure for “TACCTACTTTCTCATCTTAAGCAATCACTTCGACTTTAATCGGAGTCACCTAGTGCAG” is 9820 fluorescence intensity (a.u.).
The figure for “CTACACCGACCGTGCATCCACTCACCCACGAAGTCTGTCACGGAGTCACCTAGTGCAG” is 10500 fluorescence intensity (a.u.); for “TGTCCGTCCCTGTCTGATTCCGCCGCGCCTGACCAGACTCCGGAGTCACCTAGTGCAG” it is 9500 fluorescence intensity (a.u.); for “TTTGATGGATCGGTGTGTACTCATGGTTGTGGTATCTGCCCGGAGTCACCTAGTGCAG” it is 8380 fluorescence intensity (a.u.).
For the sequence “TCCTACTCGTCGCTGTCATCGCCGTCTCCGACACATACTTCGGAGTCACCTAGTGCAG”, the binding signal was 9700 fluorescence intensity (a.u.).
Under “CGCCCCACCCGGCCACCCCTACCCGAAGCTCTCTGCTGCTCGGAGTCACCTAGTGCAG” stands 9180 fluorescence intensity (a.u.); under “CAGCCCTGTCGTTTCTCTGCAGCATTTAATTACACACAAACGGAGTCACCTAGTGCAG”, 10700 fluorescence intensity (a.u.); under “GAGTACAGCTCCATCCTTTTGTTTGTTATTGTCTTTTTACCGGAGTCACCTAGTGCAG”, 8400 fluorescence intensity (a.u.).
Regarding “GGTTTGTTCATATGTGGCGGTGGGATCGAGATTATCTAACCGGAGTCACCTAGTGCAG”, the binding signal was 8890 fluorescence intensity (a.u.).
The figure for “TGATGAGTTATACCCGGTTTTGTGGTGTAGGGGCGAATTTCGGAGTCACCTAGTGCAG” is 8520 fluorescence intensity (a.u.); for “TTGGGGTTGCTCAGTTTGTTAGGTTTGGTTAATTTTTCTTCGGAGTCACCTAGTGCAG” it is 16000 fluorescence intensity (a.u.); for “GTACATACCAATTTTTATAATATTATTTTAACTCTACTTTCGGAGTCACCTAGTGCAG” it is 8080 fluorescence intensity (a.u.).
Take “CTCACCTGCTCCTTCAGTCAGCTCAGCTCTTCACTTCTGCCGGAGTCACCTAGTGCAG”: the binding signal was 8220 fluorescence intensity (a.u.).
The figure for “ACATCCCACCAAAATCTCTTATATTTAGGGACGTGGGGAGCGGAGTCACCTAGTGCAG” is 8710 fluorescence intensity (a.u.); for “CTTTTGTCTGTTTTAATGTCGTACTACGTAGATCCCTATTCGGAGTCACCTAGTGCAG” it is 11600 fluorescence intensity (a.u.).
The figure for “CACACGCACGCTTCTCACGTACATATCGATCGCAAATATCCGGAGTCACCTAGTGCAG” is 8490 fluorescence intensity (a.u.); for “ATCTTTTCTTGGGACATTTCTTCTGCTGATCTTTAGAGCTCGGAGTCACCTAGTGCAG” it is 8390 fluorescence intensity (a.u.).
The figure for “GCTTCCGCTCTTCATCGGTGGCTGGCTATCCTCGAGCGCTCGGAGTCACCTAGTGCAG” is 9430 fluorescence intensity (a.u.); for “TCCATCTGTCACAAATTCTCATGTCCCTTTTTGTCATTAGCGGAGTCACCTAGTGCAG” it is 12000 fluorescence intensity (a.u.); for “TTCTCGGCCGCCTTCGTGTTCGCCATCATCTCCGACTACACGGAGTCACCTAGTGCAG” it is 15700 fluorescence intensity (a.u.).
Take “CTTCTGCATGCCCAATCGCCCATGCTGCAACCGCACATAACGGAGTCACCTAGTGCAG”: the binding signal is 9280 fluorescence intensity (a.u.).
The figure for “AGTTAGGTTGAGTGTGTTATCTAGCCATTTTATGTTAAAACGGAGTCACCTAGTGCAG” is 8390 fluorescence intensity (a.u.).
For “TGTATCTAGCTTCGTAACATAGCTTTAGTTGTCGCCGACCCGGAGTCACCTAGTGCAG”, the binding signal was 8110 fluorescence intensity (a.u.).
The figure for “TTCCGAGGTTTCTTGTGCTAATCGGTGACTTTTTACCCGTCGGAGTCACCTAGTGCAG” is 10300 fluorescence intensity (a.u.); for “CTCCGCCGCTCTGCTCACCATTTCCTCTCTCGTAGCCATGCGGAGTCACCTAGTGCAG” it is 9310 fluorescence intensity (a.u.).
Under “GTCACCATCAAAATAGCTTCATATCTTCCCTGGAAATTTTCGGAGTCACCTAGTGCAG” stands 8160 fluorescence intensity (a.u.); under “CTCTCTCTCTTTCTCTCTCTCTCTCTCCCCTACCTATCTTCGGAGTCACCTAGTGCAG”, 9000 fluorescence intensity (a.u.).
Under “CCCGCCGTGGCGCCGGCGCCGTTCCCCGACCTGATCCAGTCGGAGTCACCTAGTGCAG” stands 8550 fluorescence intensity (a.u.).
With “CGCCGTCGTTCGTCCTGCTGCTTCCGCCGCATCCATCCTGCGGAGTCACCTAGTGCAG”, the binding signal is 9250 fluorescence intensity (a.u.).
As for “CATCTCCAGGCAGCCGGCCGTTGCTTCATCGACACGTATACGGAGTCACCTAGTGCAG”, the binding signal was 9030 fluorescence intensity (a.u.).
The figure for “TACGACCGGAATAACTTCTTGCCCAAAAGCTTTTTCATATCGGAGTCACCTAGTGCAG” is 8740 fluorescence intensity (a.u.).
The figure for “TCGCGACCTCCACCGCCTGCGTCACACGCCACACCACATCCGGAGTCACCTAGTGCAG” is 8610 fluorescence intensity (a.u.).
The figure for “CGACCATCAATCAGTCGCTTGCTACGTCGCTTTCCTGATTCGGAGTCACCTAGTGCAG” is 11500 fluorescence intensity (a.u.).
Consider “CACATATTAGTTACGGCCTACAATAGACTTTCGGTTAACCCGGAGTCACCTAGTGCAG”, for which the binding signal is 10300 fluorescence intensity (a.u.).
As to “TAACTATTTTTTCTCTATTATGTAGGCACATGCACACACACGGAGTCACCTAGTGCAG”, the binding signal was 8560 fluorescence intensity (a.u.).
Under “CCACGCACGCGCGCACTCGCATTCCGCCGTCCGCCATGGACGGAGTCACCTAGTGCAG” stands 8080 fluorescence intensity (a.u.); under “TGAGCTTTGTCCTTGCTACCGTTCTTAATTTAAGCCTCAACGGAGTCACCTAGTGCAG”, 11400 fluorescence intensity (a.u.).
Under “AACGCAGGAAATTCACAGATTTTCACACGATTTTGTCCTTCGGAGTCACCTAGTGCAG” stands 8360 fluorescence intensity (a.u.).
On to “TGTGGGAGGGCCTCTGTTTTCATTGGGTTTGTTTGTTTTTCGGAGTCACCTAGTGCAG”, for which the binding signal was 11200 fluorescence intensity (a.u.).
The figure for “TCCATCCACATGTGCATTAAAACTGTATTCTTTGACCTGACGGAGTCACCTAGTGCAG” is 8320 fluorescence intensity (a.u.).
